No constants are given. Whether binding was seen depends on the method and setting. Some results given as binding are weak or reduced against the parent protein; the word gives no strength.
Target: T1, SpLsm2 (Lsm2 from S. pombe) (S. pombe) (UniProt O94408)
T1 sequence: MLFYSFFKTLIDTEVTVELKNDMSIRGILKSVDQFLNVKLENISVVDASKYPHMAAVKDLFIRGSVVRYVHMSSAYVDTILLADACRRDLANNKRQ
Experiment: co-purification of co-expressed proteins; co-expression in E. coli; TALON Co2+ column by the His6 tag of SpLsm2 (20 mM Hepes pH 7.5, 200 mM NaCl), then Superdex-200 (20 mM Hepes pH 7.5, 100 mM NaCl, 2 mM DTT)

By UniProt entry, the sequences of proteins in these tests, tags left out.
UniProt Q9Y7M4: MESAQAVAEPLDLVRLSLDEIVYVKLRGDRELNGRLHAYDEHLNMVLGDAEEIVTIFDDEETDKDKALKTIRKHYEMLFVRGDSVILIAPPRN

How did the binding turn out when “SpLsm3 from the co-expressed SpLsm2/3 sample (from UniProt Q9Y7M4 1-93)” was run?
The binding was “binds”.
